Laboratory results: PubChem BioAssay AID1224826 (NIAID, 2016)

Test: 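Regulators of Tlr4 signalling leading to Tnf-alpha expression in macrophages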 (primary screen)
Cells: RAW264.7 G9 macrophages from mouse bearing reporters for p65 (GFP) and the Tnf promoter (mCherry)
Knock-down reagent: siRNA pool against mouse genes, 100 nM
Timing: 16 h of LPS stimulation, after 2 days of siRNA transfection
Treatment: bacterial lipopolysaccharide (Salmonella minnesota R595), 10 ng/ml
Read-out: 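Imaged Tnf reporter mCherry in nuclei, minus background, normalised per plate to the median and expressed as robust z-scores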
Direction: Tnf reporter robust z-score: higher = stronger Tnf promoter reporter signal after LPS
Active means: 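a well counts as active at a score of -1.3 or below (Tlr4 knock-down control median) or above 3 (raised signal); controls and wells holding fewer than 50 cells are excluded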
Meaning of the calls: active = Tnf reporter clearly lowered or raised; inactive = no clear change in Tnf reporter
In all, the deposit lists about 17,000 reagents; this is an unselected part. In the full data, about 1,110 (6.6%) got an active call. 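Active means lowered or raised reporter signal; replicate intensities are raw and not normalised per plate.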 Reagents against one gene are numbered here. Further read-outs or replicates are left out here. Reagent sequences are not shown.

After knock-down of Mettl23, the screen gave Tnf reporter robust z-score 1.11; fewer than 50 cells in well enough cells in well; inactive.
Ndel1 gave Tnf reporter robust z-score -0.58; fewer than 50 cells in well enough cells in well; inactive.
After knock-down of Or9g8 the results were Tnf reporter robust z-score 1.47; fewer than 50 cells in well enough cells in well; inactive.
With knock-down of Stat5b, the record shows Tnf reporter robust z-score 0.81; fewer than 50 cells in well enough cells in well; inactive.
For Slc35e4, the entry reads fewer than 50 cells in well fewer than 50 cells per well; well left out of calls; inactive.
After knock-down of Vmn2r1, the screen gave Tnf reporter robust z-score -0.7; fewer than 50 cells in well enough cells in well; inactive.
Depletion of Rasgef1b resulted in: Tnf reporter robust z-score 1.16; fewer than 50 cells in well enough cells in well; inactive.
Zc3h12d gave Tnf reporter robust z-score 0.02; fewer than 50 cells in well enough cells in well; inactive.
Depletion of Atp1b4 came out at: Tnf reporter robust z-score 0.31; fewer than 50 cells in well enough cells in well; inactive.

Part of the list above, set out differently.
{"Gene":"Or9g8","reagent":1,"Tnf reporter robust z-score":1.47,"fewer than 50 cells in well":"enough cells in well","call":"inactive"}
{"Gene":"Stat5b","reagent":1,"Tnf reporter robust z-score":0.81,"fewer than 50 cells in well":"enough cells in well","call":"inactive"}

Continued.
Silencing of Zfp85os gave: fewer than 50 cells in well fewer than 50 cells per well; well left out of calls; inactive.
Tmem39a scored Tnf reporter robust z-score -0.25; fewer than 50 cells in well enough cells in well; inactive.
Wdr48 showed Tnf reporter robust z-score -0.97; fewer than 50 cells in well enough cells in well; inactive.
After knock-down of Tbx3, the record shows Tnf reporter robust z-score -0.06; fewer than 50 cells in well enough cells in well; inactive.
After knock-down of Slc16a3 the results were Tnf reporter robust z-score 1.01; fewer than 50 cells in well enough cells in well; inactive.
Mslnl gave fewer than 50 cells in well fewer than 50 cells per well; well left out of calls; inactive.
Against Il36b, the values are Tnf reporter robust z-score -0.59; fewer than 50 cells in well enough cells in well; inactive.
After knock-down of Ints8, the record shows Tnf reporter robust z-score -0.32; fewer than 50 cells in well enough cells in well; inactive.
Silencing of Dusp10 resulted in: Tnf reporter robust z-score 0.58; fewer than 50 cells in well enough cells in well; inactive.
Lpar4 gave Tnf reporter robust z-score -0.04; fewer than 50 cells in well enough cells in well; inactive.
With knock-down of Vmn2r89 #1, the record shows fewer than 50 cells in well fewer than 50 cells per well; well left out of calls; inactive.
After knock-down of Vmn2r89 #2, the screen gave Tnf reporter robust z-score -0.21; fewer than 50 cells in well enough cells in well; inactive.
